According to patent publication US6727275B2, “Pyrrolidinone derivatives” (UCB, S.A./N.V., priority 2001, dated 2004):
Some of these results come from one statement about several compounds together.

Molecular target: T1, CCR2 (Homo sapiens, UniProt P41597)
T1 sequence (P41597 1-360 isoform P41597-2): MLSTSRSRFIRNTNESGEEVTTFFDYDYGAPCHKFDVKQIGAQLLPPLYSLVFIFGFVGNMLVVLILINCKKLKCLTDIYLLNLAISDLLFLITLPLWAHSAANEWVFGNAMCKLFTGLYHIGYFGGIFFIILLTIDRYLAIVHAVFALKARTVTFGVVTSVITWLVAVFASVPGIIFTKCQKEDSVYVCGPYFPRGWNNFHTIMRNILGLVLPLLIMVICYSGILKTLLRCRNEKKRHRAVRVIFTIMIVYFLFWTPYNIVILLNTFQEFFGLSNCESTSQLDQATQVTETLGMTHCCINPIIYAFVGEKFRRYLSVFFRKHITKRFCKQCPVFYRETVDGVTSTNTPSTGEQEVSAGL
Assay: Binding assay: inhibition of 125I-MCP-1 binding to THP-1 cells
Set-up: CCR2 is also expressed in the human monocytic cell line THP-1; endogenous in cells; host or cells: THP-1 (human monocytic cell line), whole cells
Conditions: 0.1 nM 125I-MCP-1, 1 hr at room temperature
Description: Antagonism of the CCR2 receptor is determined by a binding assay using the human monocytic cell line THP-1. Cells are suspended in assay buffer (RPMI+1% BSA+25 mM HEPES) at 3×10^6 cells/ml and an aliquot (180 μl) added to a 0.5 ml siliconized Eppendorf tube. […] After incubation for 1 hr at room temperature, the cell suspension is centrifuged through oil and the cell pellets counted to quantitate cell-bound ligand. Nonspecific (NS) binding of radioligand is determined by the addition of 100 nM cold MCP-1. Control binding is determined by the addition of buffer without compound.

IC50 | Compound
≤ 5 µM | COC1CCC(C2C(C(C)=O)=C(O)C(=O)N2c2ccc(Cl)cc2)CC1 (racemic) [Compound 136, 4-acetyl-1-(4-chlorophenyl)-3-hydroxy-5-(4-methoxycyclohexyl)-1,5-dihydro-2H-pyrrol-2-one]
≤ 5 µM | Cc1ccc(N2C(=O)C(O)=C(C(N)=O)C2C2CCCCC2)cc1 (racemic) [Compound 168, 2-cyclohexyl-4-hydroxy-1-(4-methylphenyl)-5-oxo-2,5-dihydro-1H-pyrrole-3-carboxamide]
